According to patent US12421193B2, “GPR52 modulators and methods of use” (Neurocrine Biosciences, Inc., priority 2020, dated 2025):
Structures were worked out from names or drawings and are uncertain.

Amino acid sequences for entries named in this document (tags omitted).
UniProt Q9Y2T5, whole entry: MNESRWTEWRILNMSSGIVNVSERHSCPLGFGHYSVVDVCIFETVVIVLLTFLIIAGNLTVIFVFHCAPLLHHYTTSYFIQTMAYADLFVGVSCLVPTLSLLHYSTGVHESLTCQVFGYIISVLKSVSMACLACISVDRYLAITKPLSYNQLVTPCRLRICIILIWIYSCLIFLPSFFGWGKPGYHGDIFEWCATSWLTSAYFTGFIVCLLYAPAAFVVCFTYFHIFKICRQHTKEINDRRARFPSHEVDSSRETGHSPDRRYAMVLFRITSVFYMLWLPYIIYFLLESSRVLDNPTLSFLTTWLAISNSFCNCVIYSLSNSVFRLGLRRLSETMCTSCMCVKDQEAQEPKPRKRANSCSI

Target: recombinant human GPR52 (Homo sapiens, UniProt Q9Y2T5)
Experiment: TR-FRET cAMP assay (LANCE Ultra cAMP Kit), GPR52 activity
Conditions: Flp-In-CHO cells stably expressing recombinant human GPR52; cAMP production, normalized to the positive control
Procedure: TR-FRET cAMP assays were performed using commercially available assay kits (LANCE™ Ultra cAMP Kit). Controls and compounds were solubilized in DMSO using ½ log dilution to generate duplicate 10-point dose response curves in 384-well polypropylene compound plates. Sixty nanoliters of the diluted compounds were transferred into 384-well NBS assay plates and further diluted to 1× with the addition of 2000 cells per well. Flp-In™—CHO cells that stably express recombinant human GPR52.
Cells were harvested with cell stripper and resuspended in Stimulation Buffer (5 mM HEPES, 0.1% bovine serum albumin (BSA), 0.5 mM IBMX, pH 7.4). After thirty minutes incubation at room temperature, detection reagents were added to each well. Plates were then incubated for 30 minutes at room temperature. The LANCE™ Ultra cAMP assay uses time-resolved fluorescence resonance energy transfer (TR-FRET) to detect cAMVP production; this signal was quantified using a Pherastar multi-mode plate reader.
Dose-response curves were generated from the fluorescence counts normalized to the positive control. E EC50 values were obtained using a nonlinear regression curve-fitting program. Table 2 provides EC50 values where A is <25 nM; B is 25-100 nM; C is 101-1000 nM; and D is >1000 nM.

For `Cc1cc(-c2cc(COc3ccc(C(F)(F)F)c(Cl)c3)ccn2)ccc1C(N)=O`, the EC50 was < 25 nM.
